Experimental data as given in patent US10059928B2, “Polymerases” (Illumina Cambridge Limited, priority 2005, dated 2018).
Some entries share one result that the patent states for a list of compounds.

Tested on: surface-coupled A-template hairpin, oligo 815
Assay: Washing assay: affinity of purified enzyme for DNA
Format: binding
Details: 500 nM enzyme bound at 45° C. for 30 minutes, wash 10 mM Tris pH 8.0, 10 mM EDTA with NaCl

B1: R743A: 9°N-7 YAV C223S exo- polymerase with alanine substitution at Arg743 in the thumb subdomain (protein)
chain: MILDTDYITENGKPVIRVFKKENGEFKIEYDRTFEPYFYALLKDDSAIEDVKKVTAKRHGTVVKVKRAEKVQKKFLGRPIEVWKLYFNHPQDVPAIRDRIRAHPAVVDIYEYDIPFAKRYLIDKGLIPMEGDEELTMLAFSISTLYHEGEEFGTGPILMISYADGSEARVITWKKIDLPYVDVVSTEKEMIKRFLRVVREKDPDVLITYNGDNFDFAYLKKRSEELGIKFTLGRDGSEPKIQRMGDRFAVEVKGRIHFDLYPVIRRTINLPTYTLEAVYEAVFGKPKEKVYAEEIAQAWESGEGLERVARYSMEDAKVTYELGREFFPMEAQLSRLIGQSLWDVSRSSTGNLVEWFLLRKAYKRNELAPNKPDERELARRRGGYAGGYVKEPERGLWDNIVYLDFRSYAVSIIITHNVSPDTLNREGCKEYDVAPEVGHKFCKDFPGFIPSLLGDLLEERQKIKRKMKATVDPLEKKLLDYRQRLIKILANSFYGYYGYAKARWYCKECAESVTAWGREYIEMVIRELEEKFGFKVLYADTDGLHATIPGADAETVKKKAKEFLKYINPKLPGLLELEYEGFYVRGFFVTKKKYAVIDEEGKITTRGLEIVRRDWSEIAKETQARVLEAILKHGDVEEAVRIVKEVTEKLSKYEVPPEKLVIHEQITRDLRDYKATGPHVAVAKRLAARGVKIRPGTVISYIVLKGSGRIGDRAIPADEFDPTKHRYDAEYYIENQVLPAVEAILKAFGYRKEDLRYQKTKQVGLGAWLKVKGKK
modifications: Codon optimised thumb mutant polymerase
notes: 9°N-7 YAV C223S exo- polymerase with alanine substitution at Arg743 in the thumb subdomain
(NaCl) in wash at which enzyme is more effectively removed from the DNA: < 200 mM
